Reference: article PMC11589570, “Critical assessment of LC3/GABARAP ligands used for degrader development and ligandability of LC3/GABARAP binding pockets” (Nature Communications, 2024)
Values joined by “and” are separate entries in the source; they are usually repeats but may differ in a detail not shown here. Equal entries are not always repeated. Further values from the same series stand in other lists.

System: U2OS cells
Assay: Cell growth assay (IncuCyte confluence over 72 h)
Assay type: cell-based
Design: key: % of well area covered by cells (confluence)
Conditions: listed as 10O5
Procedure: Cell growth assay: Cell confluence (phase) from RPE1 (hTERT RPE-1, ATCC CLR_4000) or U2OS (ATCC, HTB-96) cell lines were monitored over time with the IncuCyte S3 (Sartiorius, Germany) in 384-well plates in 50 ul DMEM media, supplemented with 10% Fetal Bovine Serum (FBS) 1% penicillin/Streptomycin and incubated 24 h before treatment. Experiment was performed as described in Cano-Franco et al.. […] Cell confluence is represented as % of area covered by cells. Each data point represents the average ratio or confluence obtained from three individual wells of the plate.

In the case of O=C1Nc2ccc(I)cc2C1=Cc1cc(Br)c(O)c(Br)c1 [compound 4], the U2OS cell growth (3 uM, time 12 h) is reported as 40.3933 and 47.5715, the U2OS cell growth (3 uM, time 14 h) is reported as 40.9146 and 42.4095 and 46.7299 and the U2OS cell growth (3 uM, time 16 h) is reported as 48.6545 and 50.5058 and 56.9939. For the same compound, the U2OS cell growth (3 uM, time 18 h) was 46.383 and 47.4183 and 52.8398, the U2OS cell growth (3 uM, time 20 h) was 45.5953 and 50.3197 and 57.1312 and the U2OS cell growth (3 uM, time 22 h) was 54.2587 and 50.5906 and 56.1778. For the same compound, the U2OS cell growth (3 uM, time 24 h) was 49.3937 and 47.3898 and 56.8872, the U2OS cell growth (3 uM, time 26 h) was 52.4755 and 55.3333 and 63.7832 and the U2OS cell growth (3 uM, time 28 h) was 54.708 and 58.8517 and 64.0279. For the same compound, the U2OS cell growth (3 uM, time 30 h) was 57.9913 and 59.0886 and 65.3867, the U2OS cell growth (3 uM, time 32 h) was 50.0039 and 62.5265 and 70.3863 and the U2OS cell growth (3 uM, time 34 h) was 58.6735 and 60.7998 and 66.6879. For the same compound, the U2OS cell growth (3 uM, time 36 h) was 65.7566 and 69.7518 and 75.9995, the U2OS cell growth (3 uM, time 38 h) was 63.7792 and 69.3951 and 76.8777 and the U2OS cell growth (3 uM, time 40 h) was 72.9944 and 75.258 and 82.4626. For the same compound, the U2OS cell growth (3 uM, time 42 h) was 74.3243 and 75.8149 and 82.292, the U2OS cell growth (3 uM, time 44 h) was 76.4482 and 77.9741 and 86.1804 and the U2OS cell growth (3 uM, time 46 h) was 73.5583 and 77.0284 and 79.321. For the same compound, the U2OS cell growth (3 uM, time 48 h) was 80.2552 and 82.0383 and 89.0914, the U2OS cell growth (3 uM, time 50 h) was 77.3392 and 78.4525 and 89.8375 and the U2OS cell growth (3 uM, time 52 h) was 80.5636 and 84.5844 and 92.5718. For the same compound, the U2OS cell growth (3 uM, time 54 h) was 79.8246 and 85.0806 and 90.7633, the U2OS cell growth (3 uM, time 56 h) was 86.0206 and 89.2174 and 94.3255 and the U2OS cell growth (3 uM, time 58 h) was 80.9144 and 90.9376 and 95.487. For the same compound, the U2OS cell growth (3 uM, time 60 h) was 90.7253 and 93.5567 and 97.5358, the U2OS cell growth (3 uM, time 62 h) was 91.4306 and 94.7191 and 98.0212 and the U2OS cell growth (3 uM, time 64 h) was 91.7465 and 95.1789 and 97.9067. For the same compound, the U2OS cell growth (3 uM, time 66 h) was 91.472 and 96.2512 and 98.2278, the U2OS cell growth (3 uM, time 68 h) was 92.0442 and 97.3153 and 98.538 and the U2OS cell growth (3 uM, time 70 h) was 95.563 and 97.9133 and 99.5812. For the same compound, the U2OS cell growth (3 uM, time 72 h) was 96.2189 and 98.3819 and 99.5553, the U2OS cell growth (5 uM, time 12 h) was 41.5945 and 38.107 and 44.6887 and the U2OS cell growth (5 uM, time 14 h) was 42.5008 and 38.1079 and 39.3573. The U2OS cell growth (5 uM, time 16 h) was 50.9744 and 41.3957 and 53.3145, the U2OS cell growth (5 uM, time 18 h) was 48.9415 and 43.9969 and 52.58 and the U2OS cell growth (5 uM, time 20 h) was 48.6684 and 42.3366 and 50.5588. For the same compound, the U2OS cell growth (5 uM, time 22 h) was 54.1128 and 49.142 and 52.8209, the U2OS cell growth (5 uM, time 24 h) was 52.6615 and 48.5016 and 56.8778 and the U2OS cell growth (5 uM, time 26 h) was 57.9395 and 52.7691 and 58.135. The U2OS cell growth (5 uM, time 28 h) was 60.7106 and 52.9898 and 61.8699, the U2OS cell growth (5 uM, time 30 h) was 61.8812 and 54.3593 and 62.709 and the U2OS cell growth (5 uM, time 32 h) was 57.6364 and 56.2779 and 65.0716. For the same compound, the U2OS cell growth (5 uM, time 34 h) was 63.5223 and 58.7092 and 65.0622, the U2OS cell growth (5 uM, time 36 h) was 69.4287 and 63.2015 and 69.982 and the U2OS cell growth (5 uM, time 38 h) was 71.824 and 61.2462 and 70.38. The U2OS cell growth (5 uM, time 40 h) was 74.0138 and 65.4881 and 75.2701, the U2OS cell growth (5 uM, time 42 h) was 74.612 and 66.8247 and 75.4771 and the U2OS cell growth (5 uM, time 44 h) was 78.1824 and 69.242 and 78.4744. For the same compound, the U2OS cell growth (5 uM, time 46 h) was 79.1644 and 69.3671 and 78.4477, the U2OS cell growth (5 uM, time 48 h) was 80.7281 and 72.6872 and 81.2898 and the U2OS cell growth (5 uM, time 50 h) was 82.2925 and 72.7627 and 80.4822. The U2OS cell growth (5 uM, time 52 h) was 84.7048 and 77.3288 and 85.0115, the U2OS cell growth (5 uM, time 54 h) was 85.3093 and 77.4144 and 84.8043 and the U2OS cell growth (5 uM, time 56 h) was 87.123 and 79.1589 and 88.3874. The U2OS cell growth (5 uM, time 58 h) was 89.2307 and 83.3243 and 90.1566, the U2OS cell growth (5 uM, time 60 h) was 91.6425 and 85.251 and 92.1104 and the U2OS cell growth (5 uM, time 62 h) was 92.7659 and 86.8499 and 93.8025. For the same compound, the U2OS cell growth (5 uM, time 64 h) was 92.554 and 87.4549 and 94.6119, the U2OS cell growth (5 uM, time 66 h) was 93.7627 and 89.6413 and 94.2806 and the U2OS cell growth (5 uM, time 68 h) was 95.1361 and 89.5041 and 95.9309. The U2OS cell growth (5 uM, time 70 h) was 95.6942 and 91.3841 and 94.5801, the U2OS cell growth (5 uM, time 72 h) was 96.4852 and 92.6609 and 98.1277 and the U2OS cell growth (10 uM, time 12 h) was 32.536 and 40.0639 and 48.1529. For the same compound, the U2OS cell growth (10 uM, time 14 h) was 32.247 and 42.8271 and 49.1718, the U2OS cell growth (10 uM, time 16 h) was 37.5553 and 46.1317 and 54.8753 and the U2OS cell growth (10 uM, time 18 h) was 37.4657 and 47.6272 and 56.1926. For the same compound, the U2OS cell growth (10 uM, time 20 h) was 38.7326 and 47.4055 and 57.0088, the U2OS cell growth (10 uM, time 22 h) was 39.7622 and 51.4521 and 59.9978 and the U2OS cell growth (10 uM, time 24 h) was 42.1096 and 53.6167 and 60.9289. For the same compound, the U2OS cell growth (10 uM, time 26 h) was 43.4453 and 57.2891 and 63.7092, the U2OS cell growth (10 uM, time 28 h) was 45.1185 and 57.2332 and 66.0065 and the U2OS cell growth (10 uM, time 30 h) was 46.3437 and 57.1579 and 66.5001. For the same compound, the U2OS cell growth (10 uM, time 32 h) was 49.7047 and 61.5367 and 69.5882, the U2OS cell growth (10 uM, time 34 h) was 49.942 and 59.425 and 68.4571 and the U2OS cell growth (10 uM, time 36 h) was 56.0947 and 64.6299 and 72.6348. The U2OS cell growth (10 uM, time 38 h) was 53.7931 and 65.5316 and 73.1188, the U2OS cell growth (10 uM, time 40 h) was 55.9633 and 67.281 and 76.365 and the U2OS cell growth (10 uM, time 42 h) was 58.3821 and 68.9853 and 79.3765. The U2OS cell growth (10 uM, time 44 h) was 62.8173 and 70.6817 and 81.7808, the U2OS cell growth (10 uM, time 46 h) was 63.0586 and 71.9052 and 81.5978 and the U2OS cell growth (10 uM, time 48 h) was 66.7143 and 74.8794 and 86.1006. The U2OS cell growth (10 uM, time 50 h) was 68.4152 and 76.0558 and 85.7427, the U2OS cell growth (10 uM, time 52 h) was 70.6127 and 77.5502 and 87.278 and the U2OS cell growth (10 uM, time 54 h) was 71.8781 and 77.544 and 89.6058. The U2OS cell growth (10 uM, time 56 h) was 73.7808 and 79.5773 and 89.8946, the U2OS cell growth (10 uM, time 58 h) was 78.3188 and 83.1021 and 91.9761 and the U2OS cell growth (10 uM, time 60 h) was 80.8925 and 84.9228 and 91.941. For the same compound, the U2OS cell growth (10 uM, time 62 h) was 82.3316 and 85.8762 and 93.6542, the U2OS cell growth (10 uM, time 64 h) was 82.513 and 86.3593 and 93.8134 and the U2OS cell growth (10 uM, time 66 h) was 84.2508 and 86.8187 and 94.2739. For the same compound, the U2OS cell growth (10 uM, time 68 h) was 86.1402 and 89.1597 and 95.5012, the U2OS cell growth (10 uM, time 70 h) was 88.3142 and 90.3834 and 95.9118 and the U2OS cell growth (10 uM, time 72 h) was 89.6628 and 91.8421 and 96.8848.
